Laboratory results taken from patent EP0732934B1, “LONG-ACTING INJECTION SUSPENSIONS OF AN LHRH ANALOGUE AND A PROCESS FOR THEIR PREPARATION” (Zentaris GmbH, priority 1993, dated 2005).
Part of at least one peptide drawing is inferred or uncertain, most often the ends. Square brackets hold non-standard residues; d marks the D form. Peptide text beside a SMILES is read from it. dPhe(4-Cl) = N[C@H](Cc1ccc(Cl)cc1)C(=O)O; d2Nal = N[C@H](Cc1ccc2ccccc2c1)C(=O)O; dCit = NC(=O)NCCC[C@@H](N)C(=O)O; d3Pal = N[C@H](Cc1cccnc1)C(=O)O

Columns and labels:
[1] = system: DMBA (7,12-dimethylbenz[a]-anthracene)-induced mamma carcinoma; assay: Inhibitory effect on DMBA-induced mamma carcinoma in rats (tumour weight by palpation); type: in vivo, Sprague-Dawley rats; conditions: single subcutaneous dose; Figure 1, curve 3
[2] = system: testosterone plasma levels; assay: Duration of action in the animal: testosterone suppression after subcutaneous application; type: in vivo; conditions: male rats
Description: Suspensions of the precipitates were applied subcutaneously to male rats in the dose 0.5 mg cetrorelix/kg body weight and determined after application as a measure of the effect of the peptide on testosterone plasma levels. The effect of the cetrorelix consists in reduction of the testosterone level. As a reference an injection suspension was tested as well, that prepared according to DE 4023134 A1 and which contained the peptide embonate in poly(lactic acid, glycolic acid) copolymers. The duration of action of a non-sustained release dosage form of cetrorelix was determined via examination of the aqueous solution of cetrorelix acetate.

CC(=O)N[C@H](Cc1ccc2ccccc2c1)C(=O)N[C@H](Cc1ccc(Cl)cc1)C(=O)N[C@H](Cc1cccnc1)C(=O)N[C@@H](CO)C(=O)N[C@@H](Cc1ccc(O)cc1)C(=O)N[C@H](CCCNC(N)=O)C(=O)N[C@@H](CC(C)C)C(=O)N[C@@H](CCCNC(=N)N)C(=O)N1CCC[C@H]1C(=O)N[C@H](C)C(N)=O [cetrorelix embonate, Ac-DNal-DpCl-Phe-DPal-Ser-Tyr-DCit-Leu-Arg-Pro-D-Ala-NH2] (Ac-[d2Nal][dPhe(4-Cl)][d3Pal]SY[dCit]LRP[dA]-NH2)
tumour weight [1]: drastic reduction in tumour weight
effect of testosterone suppression achieved after the application ([2]; 0.5 mg cetrorelix/kg body weight subcutaneously): 6 h
duration of testosterone suppression under 1 ng/ml ([2]; 0.5 mg cetrorelix/kg subcutaneously, values for subgroups of animals (acetate: two animals, three further animals; embonate: one animal)): 192 h
